# Measurements: PMC7819943, “Rice protein-binding microarrays: a tool to detect cis-acting elements near promoter regions in rice”
# The list shows a part of the results.
# Target: T1, OsSMF1 (Oryza sativa, UniProt Q6ZLB0 1-436)
# T1 sequence: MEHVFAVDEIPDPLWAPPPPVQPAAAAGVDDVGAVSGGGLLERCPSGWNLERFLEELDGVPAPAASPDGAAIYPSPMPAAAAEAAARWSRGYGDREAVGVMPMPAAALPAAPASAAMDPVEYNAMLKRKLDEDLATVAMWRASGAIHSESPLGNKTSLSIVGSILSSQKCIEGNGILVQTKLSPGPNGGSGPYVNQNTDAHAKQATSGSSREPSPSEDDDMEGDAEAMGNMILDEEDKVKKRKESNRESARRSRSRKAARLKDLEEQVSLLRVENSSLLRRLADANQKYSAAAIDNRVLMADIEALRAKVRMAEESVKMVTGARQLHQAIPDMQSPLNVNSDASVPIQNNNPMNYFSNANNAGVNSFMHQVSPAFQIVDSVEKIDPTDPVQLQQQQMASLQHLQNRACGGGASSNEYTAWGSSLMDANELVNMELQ
# Assay: protein-binding microarray (RPBM); PBS, 2% BSA, 51.3 ng/ul salmon testes DNA, 50 uM zinc acetate, 200 nM TF, 25 C, 1 h; high values mean tight binding
# Conditions: protein: recombinant; tags: N-terminal polyhistidine and DsRed monomer fusion (pET32a); chain copies: 2; label: CyDye5-dUTP incorporated in the synthesized complementary strand; 3' TTTTT single-stranded linker to array surface; dsDNA, one strand shown
# In short: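 For the binding signal, per-feature fluorescence intensity was read in arbitrary units on an Axon 4000B scanner. Before scanning, a 2% BSA-blocked custom Agilent array made double-stranded with Cy5-dUTP was washed after 1 h at 25 °C with 200 nM protein and 50 µM zinc acetate. The proteins were Ni–NTA-purified transcription factors with N-terminal polyhistidine and DsRed fusions, expressed in E. coli BL21-CodonPlus.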
row,Sequence,binding signal
1,GTGGGTAGTGACATGTCATCATGTATAGAATGGATAGCTACGGAGTCACCTAGTGCAG,6480 fluorescence intensity (a.u.)
2,CGTCTCGCCTCCTGCCTCCCCGTGCCGCCGCACCACCGCGCGGAGTCACCTAGTGCAG,4000 fluorescence intensity (a.u.)
3,AAGGCCAGCACACACATCACACTACCACTGATGATAGTGTCGGAGTCACCTAGTGCAG,5020 fluorescence intensity (a.u.)
4,GATTCCCGCCATCTCTATCCTCCTACTCGTCGCTGTCATCCGGAGTCACCTAGTGCAG,3360 fluorescence intensity (a.u.)
5,CCCTGCTCTGCCACGCCCGCCACCGTCTGCCGGCCTCTACCGGAGTCACCTAGTGCAG,4730 fluorescence intensity (a.u.)
6,CGTCCGATCACACGTGAGCGTCCCAGATCTTACGTCGTTTCGGAGTCACCTAGTGCAG,4330 fluorescence intensity (a.u.)
7,TTTGGACAAAATGTAGCTCTAATGCTGAGTAGATATCGTCCGGAGTCACCTAGTGCAG,4030 fluorescence intensity (a.u.)
8,TACGTACATACCACCCTGCGCTTGTCATCAAACAACGGTCCGGAGTCACCTAGTGCAG,4720 fluorescence intensity (a.u.)
9,TCTCGAAGGCATCCAGCTCACGGCATCTCACGCTGTCTTCCGGAGTCACCTAGTGCAG,5400 fluorescence intensity (a.u.)
10,GTTTACACCTGTTGTACCAGTGCCCAGTGAACTGGCCGTTCGGAGTCACCTAGTGCAG,3170 fluorescence intensity (a.u.)
11,TCGGTTAGGTCTTATATTGCCCACCCCTACGTACACAATGCGGAGTCACCTAGTGCAG,3210 fluorescence intensity (a.u.)
12,AGCTCGTGTAGTTCTGAAATGATCAGATCACCATATGACACGGAGTCACCTAGTGCAG,3450 fluorescence intensity (a.u.)
13,GGAATAATAATGAGAAATGTGGTGATATTTGTCACGTCAGCGGAGTCACCTAGTGCAG,5300 fluorescence intensity (a.u.)
14,CGTCGTTGTCTTCGCGTCGGTCCTGACCGCGACCCGACATCGGAGTCACCTAGTGCAG,3500 fluorescence intensity (a.u.)
15,TTCTGCGGGCCGTTCAGCTACTGCGTCAGCAGCGTCGACCCGGAGTCACCTAGTGCAG,5910 fluorescence intensity (a.u.)
16,AGGTGGTGGTGGTGGCAGAGACGTGCGCTCGAACGATTTCCGGAGTCACCTAGTGCAG,33500 fluorescence intensity (a.u.)
17,TTGAATGGTGATGTAACTTGCATGGTTCTACACTTGATGACGGAGTCACCTAGTGCAG,3610 fluorescence intensity (a.u.)
18,TCCCGCCAAACTTCGTCCGCCAGCTCAGCACCAAGGCCCGCGGAGTCACCTAGTGCAG,7630 fluorescence intensity (a.u.)
19,GCGCGCGTGCACGCCGCGGTCACCGTGGCGAGCGTGGCGGCGGAGTCACCTAGTGCAG,3620 fluorescence intensity (a.u.)
20,CTACCATATTCTATCCATCTCCAAGTCCAGTGACTCAGTACGGAGTCACCTAGTGCAG,7060 fluorescence intensity (a.u.)
21,CTGAACCCCTGCCTGCTCACCGTCACCGACGAGGACGCCGCGGAGTCACCTAGTGCAG,3620 fluorescence intensity (a.u.)

# Given tab-delimited: entries from further up.
row	Sequence	binding signal
16	AGGTGGTGGTGGTGGCAGAGACGTGCGCTCGAACGATTTCCGGAGTCACCTAGTGCAG	33500 fluorescence intensity (a.u.)
21	CTGAACCCCTGCCTGCTCACCGTCACCGACGAGGACGCCGCGGAGTCACCTAGTGCAG	3620 fluorescence intensity (a.u.)

# (next part)

row,Sequence,binding signal
1,GAGGAGGCTGCGCCGGCGAGGTCACGTCATGCTCTCTCTGCGGAGTCACCTAGTGCAG,4610 fluorescence intensity (a.u.)
2,CCCCGCCAAAACCGCTGCCACGTCGTCGTCTCCCGCCAAACGGAGTCACCTAGTGCAG,8840 fluorescence intensity (a.u.)
3,TGGAGCAATTATCAGACAATGCTGACGCACAAGAATTCTTCGGAGTCACCTAGTGCAG,8420 fluorescence intensity (a.u.)
4,TTTATAAGAAACGGCCGTGTTTGGTGGTGGGTGTTGGGAACGGAGTCACCTAGTGCAG,3400 fluorescence intensity (a.u.)
5,GGTACTCCTTCCATATTTTAATACATGACGCCGTTGATTTCGGAGTCACCTAGTGCAG,4090 fluorescence intensity (a.u.)
6,CTCTGTTTCCTCTGCATGCGATGCATGCGTAGATCATCAGCGGAGTCACCTAGTGCAG,21200 fluorescence intensity (a.u.)
7,TGAGAATACCAGATGACAAAAGGTGACAGTAGTTAGGAACCGGAGTCACCTAGTGCAG,4190 fluorescence intensity (a.u.)
8,AATCTTCAATGCCCATCCTTAAGGGTGTGTTTGGATAATGCGGAGTCACCTAGTGCAG,3930 fluorescence intensity (a.u.)
9,TCTAACCCCGCCTGCAGATCCGCTCCATCGATTCCCTCCCCGGAGTCACCTAGTGCAG,31700 fluorescence intensity (a.u.)
10,ATTAAACGGGTCGAATTTGTCACCATATAGTACACGTCTCCGGAGTCACCTAGTGCAG,4680 fluorescence intensity (a.u.)
11,TTCCCTGCAACGTGTTCCCGGGGCTGAAGTGTTCCGGTTCCGGAGTCACCTAGTGCAG,4660 fluorescence intensity (a.u.)
12,TCGCAGTTGGCGTCGCGGCCGCCACCTCCTCCTACTCCGGCGGAGTCACCTAGTGCAG,3640 fluorescence intensity (a.u.)
13,TCGAGCAGGCCGAGCAGTAGCAGAGCCTCACATCACGTGGCGGAGTCACCTAGTGCAG,4100 fluorescence intensity (a.u.)
14,CCACGAGCGCCTGCGTCATCCCGTCTCATCGCGAGTCACCCGGAGTCACCTAGTGCAG,9970 fluorescence intensity (a.u.)
15,ACAGCATCGATCGTCGCCACACCACTGCATCGATCTGTTGCGGAGTCACCTAGTGCAG,4020 fluorescence intensity (a.u.)
16,TGTATAATACATGCCCACGCATTCGCGCGGGCTACCCTCCCGGAGTCACCTAGTGCAG,3530 fluorescence intensity (a.u.)
17,ATCATGACAAAGCCCCGTCAGCATATGCATCACATCGCACCGGAGTCACCTAGTGCAG,11600 fluorescence intensity (a.u.)
18,CCGTGGCTGTGGTTGCTGATGCAGTGAAGGAGAGCCGGAGCGGAGTCACCTAGTGCAG,3280 fluorescence intensity (a.u.)
19,GTATTGGGGATGGGAGAATGGGAGCTGGGAGGGCGGCCGACGGAGTCACCTAGTGCAG,3440 fluorescence intensity (a.u.)
20,AGCTGTTCGCCTCGTCCTCGTCCACGCGTAGTGCGAAGCTCGGAGTCACCTAGTGCAG,4920 fluorescence intensity (a.u.)
21,CACTAAACTACCTATACTATCTCTACTATCACTTGGCTTTCGGAGTCACCTAGTGCAG,3180 fluorescence intensity (a.u.)
